According to US20200129570A1, “Specific Bacterial Species and Metabolite That Improves Immune Checkpoint Inhibitor Therapy Efficacy” (BOARD OF REGENTS, THE UNIVERSITY OF TEXAS SYSTEM, priority 2017, published 2020):

Experiment: Non-targeted UHPLC/MS metabolomics of fecal samples (Metabolon), responders vs progressive disease
Set-up: species or system human

Structure (SMILES)	fecal metabolite level in responders (ICT responders)	fecal metabolite level in responders vs non-responders (IN responders)	fecal metabolite level in responders vs non-responders (P responders)
CCCCCCCCCCCCCCCc1cccc(O)c1C(=O)O [anacardic acid]	high levels	increased levels	
N=C(N)NCCC[C@H](N)C(=O)O [arginine]			increased levels
